# The other results are listed elsewhere or left out.
# The chains behind the UniProt entries cited, without tags or fusion partners.
# UniProt Q0JBA9, entry or part of it: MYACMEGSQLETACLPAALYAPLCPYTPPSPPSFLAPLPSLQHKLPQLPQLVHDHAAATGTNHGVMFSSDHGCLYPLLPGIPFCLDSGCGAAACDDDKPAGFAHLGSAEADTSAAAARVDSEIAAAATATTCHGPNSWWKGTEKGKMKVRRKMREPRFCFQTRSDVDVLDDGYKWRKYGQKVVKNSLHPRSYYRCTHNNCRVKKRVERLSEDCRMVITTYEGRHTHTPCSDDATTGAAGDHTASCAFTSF
# Target: OsWRKY34 (Oryza sativa, UniProt Q0JBA9 1-250)
# Experiment: protein-binding microarray (RPBM); PBS, 2% BSA, 51.3 ng/ul salmon testes DNA, 50 uM zinc acetate, 200 nM TF, 25 C, 1 h; high values mean tight binding
# Conditions: protein: recombinant; tags: N-terminal polyhistidine and DsRed monomer fusion (pET32a); label: CyDye5-dUTP incorporated in the synthesized complementary strand; 3' TTTTT single-stranded linker to array surface; dsDNA, one strand shown
# In short: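 A custom Agilent array was converted to double-stranded form by primer extension with Cy5-dUTP and blocked with 2% BSA. Protein at 200 nM in PBS with 2% BSA, salmon testes DNA and 50 µM zinc acetate was applied for 1 h at 25 °C, followed by washing. The proteins were polyhistidine–DsRed N-terminal fusions of transcription factors, expressed in E. coli BL21-CodonPlus and Ni–NTA-purified. The binding signal is per-feature fluorescence intensity (arbitrary units) from an Axon 4000B scanner.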
row,Sequence,binding signal
1,CTTTTTGTGAGTTTCTTTTTCTTCACCTCCACTTCTTCCACGGAGTCACCTAGTGCAG,9260 fluorescence intensity (a.u.)
2,ATACTCGTACACTCGCCGAATAGCCGTGTTTTTTTTAGCCCGGAGTCACCTAGTGCAG,10600 fluorescence intensity (a.u.)
3,GTAGGGTTTACGTGCGTGCGTTGTGATTGTCTATGTTGTACGGAGTCACCTAGTGCAG,8360 fluorescence intensity (a.u.)
4,CTAGATTCGTTTGTCATTGTTAACAATTTTTCGAGGAGCTCGGAGTCACCTAGTGCAG,9130 fluorescence intensity (a.u.)
5,TGCGTCTCGAAATATCCGGCTTTCTTGTTGTGCGATTTGGCGGAGTCACCTAGTGCAG,8960 fluorescence intensity (a.u.)
6,ATAGGATGCATCTGTTCGCTTTTGCGGCTGCTGTTTTGCACGGAGTCACCTAGTGCAG,9350 fluorescence intensity (a.u.)
7,TACTACCCGTCGTCGTCGTCATCTTCTTCTTCCTGGTATTCGGAGTCACCTAGTGCAG,10000 fluorescence intensity (a.u.)
8,CGGTGGTGGTGGATGCTGGCGCTGGCGGTGGGCGCGAGCTCGGAGTCACCTAGTGCAG,10100 fluorescence intensity (a.u.)
9,ATAAGACGAATGGTCAAATATGTGAGAAAAAGTCAACGGCCGGAGTCACCTAGTGCAG,11100 fluorescence intensity (a.u.)
10,GCAGTTGGTGACTTGGTTCGTTCCGCACACTCCACTCCACCGGAGTCACCTAGTGCAG,8260 fluorescence intensity (a.u.)
11,GGGGATGGGGATTCGATGTGTCTATGCGTGGGCCCTGGTTCGGAGTCACCTAGTGCAG,11000 fluorescence intensity (a.u.)
12,CTCGTTCGCGCTCTCTCTCTCTCTCTCTACAACATCTCTACGGAGTCACCTAGTGCAG,10300 fluorescence intensity (a.u.)
13,CACAACACCACAGCATGACCTTCGCGGCTTCGCCTATCATCGGAGTCACCTAGTGCAG,8520 fluorescence intensity (a.u.)
14,CCAGTGAATTACATTTTTGCCCGATCCCGTCGCGAACTCCCGGAGTCACCTAGTGCAG,8750 fluorescence intensity (a.u.)
15,TTTTCCTGTTGCAATCTACTGGGTATTTTTGCTAGTAAGACGGAGTCACCTAGTGCAG,8140 fluorescence intensity (a.u.)
16,CCTCACAATTCTCTTCGTTTCTTTTTTCTTGCTGATAAGTCGGAGTCACCTAGTGCAG,9860 fluorescence intensity (a.u.)
17,CGCCAACGTCTCTCTCCCCAGCTCGCCGCCGCCGCCTCTCCGGAGTCACCTAGTGCAG,9840 fluorescence intensity (a.u.)
18,CCGTCTCGCCACCCCACACCCAAGGCCGGCGACTCCTTCGCGGAGTCACCTAGTGCAG,8340 fluorescence intensity (a.u.)
19,ACTACATCCTCCCATACTTCCTGTAGTCAAATCGGGGAACCGGAGTCACCTAGTGCAG,8060 fluorescence intensity (a.u.)
20,TTCGTTGGTTTGGGGAGGAAGAAAGGAATGGAAGCACCGACGGAGTCACCTAGTGCAG,9040 fluorescence intensity (a.u.)
21,GTTCCTGGTTTGTGTGACACGTGGGAGAGGGGAATAGTACCGGAGTCACCTAGTGCAG,9360 fluorescence intensity (a.u.)

row,Sequence,binding signal
1,TTCGCTTCTCGGTTCTCCGCATCATCTCGGTCGATCGTAACGGAGTCACCTAGTGCAG,13000 fluorescence intensity (a.u.)
2,TGGGCTATTCCAATTGTTTTTAGTTTCCTTGTTGAGTATTCGGAGTCACCTAGTGCAG,10800 fluorescence intensity (a.u.)
3,CTCTCGTTGTTTTTGCTCTTTTGGGTTCGCTCGGAAGATGCGGAGTCACCTAGTGCAG,8490 fluorescence intensity (a.u.)
4,TTCTCCTTTGTTTGTGACTCTGCAAGTCATTTTATCTTTGCGGAGTCACCTAGTGCAG,8550 fluorescence intensity (a.u.)
5,CCACTGTTGCGAAGTCGGGTTGGTGGGTGGTTGATTGATTCGGAGTCACCTAGTGCAG,10300 fluorescence intensity (a.u.)
6,TTGGGCTCTTATATGGACTCTTCTTTCAATATTGCTTATTCGGAGTCACCTAGTGCAG,10500 fluorescence intensity (a.u.)
7,CTTTTCCCCATCCGAGCCTTGAGCTCTTCTTCTTCTCTCTCGGAGTCACCTAGTGCAG,9610 fluorescence intensity (a.u.)
8,CCTAAACCCACCCCACCCCACGCCGACGAAACCCTAATCCCGGAGTCACCTAGTGCAG,9960 fluorescence intensity (a.u.)
9,TTTTTTTCTAGAATTTTTGGTGATATCTGCTAGTTCGTGTCGGAGTCACCTAGTGCAG,8390 fluorescence intensity (a.u.)
10,ATCAGTAGAACTTATGGTATGGGTATCTAATCTCGTACTTCGGAGTCACCTAGTGCAG,8150 fluorescence intensity (a.u.)
11,GACACAACCAAAGCACCATTCTGTTGTACTCCGTTTTCCTCGGAGTCACCTAGTGCAG,8840 fluorescence intensity (a.u.)
12,CAGATCATGCCACTCCATTGCTGCCCCGACTGGCGCCATGCGGAGTCACCTAGTGCAG,8570 fluorescence intensity (a.u.)
13,CTTTTAGCATCACATCACATAATGACATTACACTCAAGTTCGGAGTCACCTAGTGCAG,9600 fluorescence intensity (a.u.)
14,CCTGCTTCTTCCGTGTGTGTATATATCCACCCTCCACCTCCGGAGTCACCTAGTGCAG,9450 fluorescence intensity (a.u.)
15,CTGTTCTTCTACGGTTTCTTGGTTAGGTTGCTTGCAGAGACGGAGTCACCTAGTGCAG,8920 fluorescence intensity (a.u.)
16,TCCGAGGCAGATCTCCACACGTATCTCCGCACTTGACTTTCGGAGTCACCTAGTGCAG,9700 fluorescence intensity (a.u.)
17,TCTTGTGGTTTTGGATCGGGTTGGTGGTGGTGGTGGAGCTCGGAGTCACCTAGTGCAG,15700 fluorescence intensity (a.u.)
18,GATGTACTCCTACCTTGGGAATGGTCGTTCTCACTTCCGTCGGAGTCACCTAGTGCAG,9840 fluorescence intensity (a.u.)
19,GCGCCACCAACACACTACACTAGCAAGCTTGGTACTAATCCGGAGTCACCTAGTGCAG,9400 fluorescence intensity (a.u.)
20,AAATGATTTTCTCTTCTTCTTTTTTTTTGTTCGGCAGAGACGGAGTCACCTAGTGCAG,8190 fluorescence intensity (a.u.)
21,GGTTTCTCACCTGGATTTGTGCCATTTGGTTGTACTTGTACGGAGTCACCTAGTGCAG,10200 fluorescence intensity (a.u.)

# Three records picked at random from the list so far, as already listed:
row,Sequence,binding signal
1,CTTTTTGTGAGTTTCTTTTTCTTCACCTCCACTTCTTCCACGGAGTCACCTAGTGCAG,9260 fluorescence intensity (a.u.)
13,CTTTTAGCATCACATCACATAATGACATTACACTCAAGTTCGGAGTCACCTAGTGCAG,9600 fluorescence intensity (a.u.)
15,CTGTTCTTCTACGGTTTCTTGGTTAGGTTGCTTGCAGAGACGGAGTCACCTAGTGCAG,8920 fluorescence intensity (a.u.)

# Source: PMC7819943, “Rice protein-binding microarrays: a tool to detect cis-acting elements near promoter regions in rice”
